The target of this assay is HA-tagged DDX3X (UniProt O00571). The assay can be described thus: affinity purification with mass spectrometry; HA-DDX3X precipitated with anti-HA-Agarose from extracts (500 µg protein) of spreading MRC5 cells, 2 h at 4°C; resin-only control; trypsin digest, dimethyl labelling, LC-MS; enriched two-fold or more.

By UniProt entry, the sequences of proteins in these tests, tags left out.
UniProt O00571: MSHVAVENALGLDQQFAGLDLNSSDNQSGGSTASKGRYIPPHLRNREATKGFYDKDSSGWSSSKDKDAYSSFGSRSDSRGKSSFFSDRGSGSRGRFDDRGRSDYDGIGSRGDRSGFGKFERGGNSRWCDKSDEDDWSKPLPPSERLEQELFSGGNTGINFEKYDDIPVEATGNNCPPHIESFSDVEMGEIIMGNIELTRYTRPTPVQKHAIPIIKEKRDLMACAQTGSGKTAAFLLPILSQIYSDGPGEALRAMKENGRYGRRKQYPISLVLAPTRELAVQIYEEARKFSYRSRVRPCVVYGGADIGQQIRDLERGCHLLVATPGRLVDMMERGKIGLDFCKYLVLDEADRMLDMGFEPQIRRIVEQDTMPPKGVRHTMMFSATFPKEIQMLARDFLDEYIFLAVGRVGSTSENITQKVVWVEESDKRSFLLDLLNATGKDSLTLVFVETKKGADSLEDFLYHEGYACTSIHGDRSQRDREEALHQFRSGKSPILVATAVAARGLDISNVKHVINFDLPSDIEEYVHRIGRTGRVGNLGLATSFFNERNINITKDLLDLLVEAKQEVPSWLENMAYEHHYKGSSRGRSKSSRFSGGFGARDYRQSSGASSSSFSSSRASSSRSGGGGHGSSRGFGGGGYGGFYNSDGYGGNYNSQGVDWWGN
UniProt P11940: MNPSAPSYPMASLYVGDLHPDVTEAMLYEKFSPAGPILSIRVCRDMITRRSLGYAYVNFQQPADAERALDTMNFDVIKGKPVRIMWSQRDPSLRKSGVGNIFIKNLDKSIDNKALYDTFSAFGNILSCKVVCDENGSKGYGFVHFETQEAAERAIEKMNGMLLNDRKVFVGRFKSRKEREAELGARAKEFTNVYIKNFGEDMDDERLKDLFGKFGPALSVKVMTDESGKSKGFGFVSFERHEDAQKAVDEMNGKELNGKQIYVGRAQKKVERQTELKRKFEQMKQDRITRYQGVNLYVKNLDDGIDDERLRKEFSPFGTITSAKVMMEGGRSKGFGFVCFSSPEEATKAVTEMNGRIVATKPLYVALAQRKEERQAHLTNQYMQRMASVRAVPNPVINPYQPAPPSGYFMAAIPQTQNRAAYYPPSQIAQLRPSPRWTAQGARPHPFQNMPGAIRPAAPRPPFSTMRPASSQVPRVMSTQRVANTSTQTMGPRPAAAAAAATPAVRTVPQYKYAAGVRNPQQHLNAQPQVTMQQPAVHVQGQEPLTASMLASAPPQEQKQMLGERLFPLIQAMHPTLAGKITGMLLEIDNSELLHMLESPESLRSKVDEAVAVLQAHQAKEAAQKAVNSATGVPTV

No constants are given. Whether binding was seen depends on the method and setting. In cells and extracts the contact can be indirect. These calls come from enrichment with a bait or labelling near it, and not all partners need be listed.

“poly(A)-binding protein 1 (from UniProt P11940 1-636)”: the binding entry is “binds”.

(Values after paper PMC5577505.)
